For this experiment, the target named is HIV-1 Negative factor (Nef) of SF2 with an HA-tag (HIV-1 (SF2)) (UniProt P03407). As to the kind of experiment: co-IP; FLAG-tagged Ser5 or HA-tagged Nef or glycoGag expressed or co-expressed in HEK293T cells; RIPA lysate; anti-FLAG M2 magnetic beads or anti-HA Affinity Gel; endogenous RETREG1 detected by WB.

Amino acid sequences for entries named in this document (tags omitted).
UniProt P03407: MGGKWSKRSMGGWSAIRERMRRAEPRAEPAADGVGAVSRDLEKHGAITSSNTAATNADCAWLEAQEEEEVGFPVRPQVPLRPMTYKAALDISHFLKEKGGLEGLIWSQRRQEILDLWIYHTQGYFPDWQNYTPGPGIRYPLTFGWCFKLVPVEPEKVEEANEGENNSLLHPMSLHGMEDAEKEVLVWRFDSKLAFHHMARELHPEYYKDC

These are yes or no findings as the source states them, for the method shown. In cells and extracts the contact can be indirect.

This note sets out measurements from paper doi:10.1101/2025.03.06.641798.

With “Reticulophagy regulator 1 (RETREG1), endogenous (from UniProt Q9H6L5-1 1-497)”, the binding result was “no binding”.
